{
  "source": "the GenesisPotency data set",
  "note": "The campaign covered roughly 220,000 compounds. About 16,000 (7.3%) were called active. Inconclusive results (about 25%) are left out. Calls follow the shape of the dose curve; as a rule, active = well fitted inhibition curve with a large enough effect (not every such curve was filed as active); inconclusive = small, poorly fitted or top-dose-only effect, or another doubt; inactive = no such curve, though single readings can be large or run the other way. This is one part of the list.",
  "data": [
    {"target": "T1, Aldehyde dehydrogenase 1A1, Homo sapiens (UniProt P00352)", "T1 sequence (whole entry)": "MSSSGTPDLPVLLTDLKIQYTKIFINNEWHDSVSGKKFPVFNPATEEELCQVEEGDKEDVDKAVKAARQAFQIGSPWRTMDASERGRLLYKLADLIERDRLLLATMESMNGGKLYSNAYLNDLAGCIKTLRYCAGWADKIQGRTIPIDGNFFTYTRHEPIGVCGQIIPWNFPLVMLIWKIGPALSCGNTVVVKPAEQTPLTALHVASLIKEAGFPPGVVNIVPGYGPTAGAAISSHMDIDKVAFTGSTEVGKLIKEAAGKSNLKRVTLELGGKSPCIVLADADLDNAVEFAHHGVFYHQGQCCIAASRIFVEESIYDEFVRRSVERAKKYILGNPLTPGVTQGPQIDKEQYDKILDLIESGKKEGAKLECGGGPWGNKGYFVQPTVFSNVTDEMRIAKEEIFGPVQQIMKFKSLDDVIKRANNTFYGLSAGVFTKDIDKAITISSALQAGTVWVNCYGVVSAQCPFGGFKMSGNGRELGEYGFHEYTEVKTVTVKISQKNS", "assay": "qHTS Assay for Inhibitors of Aldehyde Dehydrogenase 1 (ALDH1A1)", "values": [
      {"molecule": "CN[C@@H](C)CCC=C(C)C.CN[C@@H](C)CCC=C(C)C.O=C(O)[C@@H](O)[C@@H](O)[C@@H](O)[C@@H](O)C(=O)O", "outcome": "inactive"}
    ]}
  ]
}
